# Source: the supplement of paper PMC10849652
# Chains of the proteins cited; added tags and fusions are not shown. Lines headed by an entry give the natural chain unless they say otherwise; changes in a name come on top.
# UniProt O95870: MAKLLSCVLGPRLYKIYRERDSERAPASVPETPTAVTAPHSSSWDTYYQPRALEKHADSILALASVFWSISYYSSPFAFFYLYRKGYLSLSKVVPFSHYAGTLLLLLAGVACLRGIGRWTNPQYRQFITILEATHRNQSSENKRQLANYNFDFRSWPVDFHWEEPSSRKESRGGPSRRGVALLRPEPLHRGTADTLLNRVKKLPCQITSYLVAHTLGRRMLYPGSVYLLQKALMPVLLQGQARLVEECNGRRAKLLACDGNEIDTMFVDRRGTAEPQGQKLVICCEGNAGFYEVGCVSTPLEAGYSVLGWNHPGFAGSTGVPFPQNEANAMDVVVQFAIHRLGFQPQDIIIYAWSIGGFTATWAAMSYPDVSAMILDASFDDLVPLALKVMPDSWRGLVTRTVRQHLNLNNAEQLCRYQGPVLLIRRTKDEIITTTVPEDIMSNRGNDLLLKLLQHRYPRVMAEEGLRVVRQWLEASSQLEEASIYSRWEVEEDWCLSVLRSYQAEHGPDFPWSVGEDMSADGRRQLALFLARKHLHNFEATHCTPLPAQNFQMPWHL
# UniProt Q9Y305: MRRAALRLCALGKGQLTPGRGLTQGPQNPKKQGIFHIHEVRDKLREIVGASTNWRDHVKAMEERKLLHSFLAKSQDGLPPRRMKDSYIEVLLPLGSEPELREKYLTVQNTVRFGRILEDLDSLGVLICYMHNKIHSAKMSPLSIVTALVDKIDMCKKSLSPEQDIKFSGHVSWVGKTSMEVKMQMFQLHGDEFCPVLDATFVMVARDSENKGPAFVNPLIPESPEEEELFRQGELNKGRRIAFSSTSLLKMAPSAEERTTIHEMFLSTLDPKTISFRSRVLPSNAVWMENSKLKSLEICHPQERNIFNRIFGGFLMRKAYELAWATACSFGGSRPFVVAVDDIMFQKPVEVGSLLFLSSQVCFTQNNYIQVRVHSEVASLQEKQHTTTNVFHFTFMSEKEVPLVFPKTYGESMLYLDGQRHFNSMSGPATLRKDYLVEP
# UniProt Q9NX38: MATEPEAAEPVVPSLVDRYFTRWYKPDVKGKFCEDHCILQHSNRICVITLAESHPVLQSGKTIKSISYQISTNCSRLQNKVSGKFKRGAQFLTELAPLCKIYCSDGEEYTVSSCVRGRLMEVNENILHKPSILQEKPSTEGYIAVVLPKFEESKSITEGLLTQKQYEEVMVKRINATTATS
# UniProt Q9H568: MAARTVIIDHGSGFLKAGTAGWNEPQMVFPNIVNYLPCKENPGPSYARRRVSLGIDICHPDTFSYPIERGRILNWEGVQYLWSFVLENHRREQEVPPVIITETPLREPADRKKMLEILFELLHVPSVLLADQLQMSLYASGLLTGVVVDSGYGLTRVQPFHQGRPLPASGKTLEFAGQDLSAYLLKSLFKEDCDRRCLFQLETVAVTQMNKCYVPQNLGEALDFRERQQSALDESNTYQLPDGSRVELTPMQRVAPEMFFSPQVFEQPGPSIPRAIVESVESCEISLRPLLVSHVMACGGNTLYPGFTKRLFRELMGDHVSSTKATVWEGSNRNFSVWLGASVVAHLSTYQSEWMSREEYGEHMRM
# UniProt Q9NR19, whole entry, looked up: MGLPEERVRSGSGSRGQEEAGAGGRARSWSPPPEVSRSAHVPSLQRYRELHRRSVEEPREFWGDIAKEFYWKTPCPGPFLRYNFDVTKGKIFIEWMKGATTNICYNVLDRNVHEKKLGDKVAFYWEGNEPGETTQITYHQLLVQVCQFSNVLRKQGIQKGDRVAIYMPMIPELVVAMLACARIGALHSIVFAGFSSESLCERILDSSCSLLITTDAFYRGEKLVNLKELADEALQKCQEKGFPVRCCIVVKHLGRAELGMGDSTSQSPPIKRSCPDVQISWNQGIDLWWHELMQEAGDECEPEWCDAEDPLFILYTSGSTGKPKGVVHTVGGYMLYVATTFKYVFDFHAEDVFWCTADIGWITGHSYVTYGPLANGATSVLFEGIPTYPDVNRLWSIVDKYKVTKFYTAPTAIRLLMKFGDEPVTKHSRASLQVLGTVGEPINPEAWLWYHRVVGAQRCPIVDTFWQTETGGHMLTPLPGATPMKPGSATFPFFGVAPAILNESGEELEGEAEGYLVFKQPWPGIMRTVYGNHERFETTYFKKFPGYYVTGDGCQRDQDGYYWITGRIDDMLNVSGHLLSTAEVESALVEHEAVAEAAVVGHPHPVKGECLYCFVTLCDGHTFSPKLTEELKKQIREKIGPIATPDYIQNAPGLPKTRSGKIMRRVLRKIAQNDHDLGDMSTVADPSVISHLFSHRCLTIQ
# UniProt P12814, whole entry, looked up: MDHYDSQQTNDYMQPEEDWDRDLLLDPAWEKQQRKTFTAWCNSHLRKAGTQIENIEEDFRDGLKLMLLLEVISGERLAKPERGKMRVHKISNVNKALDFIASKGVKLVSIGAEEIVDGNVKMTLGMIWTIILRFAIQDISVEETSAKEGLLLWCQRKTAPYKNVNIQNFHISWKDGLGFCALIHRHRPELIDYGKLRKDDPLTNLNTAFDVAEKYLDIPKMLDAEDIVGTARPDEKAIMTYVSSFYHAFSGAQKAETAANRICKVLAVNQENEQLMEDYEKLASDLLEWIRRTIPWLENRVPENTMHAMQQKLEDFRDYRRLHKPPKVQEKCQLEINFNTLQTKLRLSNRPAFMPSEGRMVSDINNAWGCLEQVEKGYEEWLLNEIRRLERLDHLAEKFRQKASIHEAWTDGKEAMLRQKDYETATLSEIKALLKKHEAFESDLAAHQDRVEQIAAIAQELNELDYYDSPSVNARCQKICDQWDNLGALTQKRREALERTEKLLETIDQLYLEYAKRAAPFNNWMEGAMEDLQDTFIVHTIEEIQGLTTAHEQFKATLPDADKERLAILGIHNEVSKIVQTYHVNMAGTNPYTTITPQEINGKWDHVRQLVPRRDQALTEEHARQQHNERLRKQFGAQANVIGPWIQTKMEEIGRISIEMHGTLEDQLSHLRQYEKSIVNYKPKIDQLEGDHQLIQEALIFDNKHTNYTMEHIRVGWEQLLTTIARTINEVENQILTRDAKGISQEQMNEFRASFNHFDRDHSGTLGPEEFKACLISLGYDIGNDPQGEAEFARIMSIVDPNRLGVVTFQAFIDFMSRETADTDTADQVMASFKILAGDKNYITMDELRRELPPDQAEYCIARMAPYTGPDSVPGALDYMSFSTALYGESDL
# UniProt Q9NRK6: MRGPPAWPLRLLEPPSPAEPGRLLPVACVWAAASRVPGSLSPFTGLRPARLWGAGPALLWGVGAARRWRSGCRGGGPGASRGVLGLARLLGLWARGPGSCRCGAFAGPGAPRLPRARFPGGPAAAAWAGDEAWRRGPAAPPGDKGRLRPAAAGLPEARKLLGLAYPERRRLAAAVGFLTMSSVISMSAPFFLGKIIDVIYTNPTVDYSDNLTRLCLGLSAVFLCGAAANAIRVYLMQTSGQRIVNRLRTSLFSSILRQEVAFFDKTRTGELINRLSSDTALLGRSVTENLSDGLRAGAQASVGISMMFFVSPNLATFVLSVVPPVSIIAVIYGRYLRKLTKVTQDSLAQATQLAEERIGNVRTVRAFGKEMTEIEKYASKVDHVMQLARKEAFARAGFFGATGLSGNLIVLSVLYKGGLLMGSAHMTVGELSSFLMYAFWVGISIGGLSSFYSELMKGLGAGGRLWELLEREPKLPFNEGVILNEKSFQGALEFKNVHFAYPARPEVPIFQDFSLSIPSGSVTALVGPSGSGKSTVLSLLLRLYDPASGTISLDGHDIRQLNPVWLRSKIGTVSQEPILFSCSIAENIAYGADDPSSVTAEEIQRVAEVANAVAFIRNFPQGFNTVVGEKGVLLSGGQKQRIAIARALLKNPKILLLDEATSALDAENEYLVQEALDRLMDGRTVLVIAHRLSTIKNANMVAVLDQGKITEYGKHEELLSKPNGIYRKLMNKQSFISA
# UniProt Q7Z6V5: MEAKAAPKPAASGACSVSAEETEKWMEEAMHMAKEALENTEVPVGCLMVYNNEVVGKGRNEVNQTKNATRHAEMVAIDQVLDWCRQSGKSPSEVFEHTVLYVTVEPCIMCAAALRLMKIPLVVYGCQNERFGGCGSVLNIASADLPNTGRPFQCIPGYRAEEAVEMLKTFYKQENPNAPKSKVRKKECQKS
# UniProt Q2M2I8: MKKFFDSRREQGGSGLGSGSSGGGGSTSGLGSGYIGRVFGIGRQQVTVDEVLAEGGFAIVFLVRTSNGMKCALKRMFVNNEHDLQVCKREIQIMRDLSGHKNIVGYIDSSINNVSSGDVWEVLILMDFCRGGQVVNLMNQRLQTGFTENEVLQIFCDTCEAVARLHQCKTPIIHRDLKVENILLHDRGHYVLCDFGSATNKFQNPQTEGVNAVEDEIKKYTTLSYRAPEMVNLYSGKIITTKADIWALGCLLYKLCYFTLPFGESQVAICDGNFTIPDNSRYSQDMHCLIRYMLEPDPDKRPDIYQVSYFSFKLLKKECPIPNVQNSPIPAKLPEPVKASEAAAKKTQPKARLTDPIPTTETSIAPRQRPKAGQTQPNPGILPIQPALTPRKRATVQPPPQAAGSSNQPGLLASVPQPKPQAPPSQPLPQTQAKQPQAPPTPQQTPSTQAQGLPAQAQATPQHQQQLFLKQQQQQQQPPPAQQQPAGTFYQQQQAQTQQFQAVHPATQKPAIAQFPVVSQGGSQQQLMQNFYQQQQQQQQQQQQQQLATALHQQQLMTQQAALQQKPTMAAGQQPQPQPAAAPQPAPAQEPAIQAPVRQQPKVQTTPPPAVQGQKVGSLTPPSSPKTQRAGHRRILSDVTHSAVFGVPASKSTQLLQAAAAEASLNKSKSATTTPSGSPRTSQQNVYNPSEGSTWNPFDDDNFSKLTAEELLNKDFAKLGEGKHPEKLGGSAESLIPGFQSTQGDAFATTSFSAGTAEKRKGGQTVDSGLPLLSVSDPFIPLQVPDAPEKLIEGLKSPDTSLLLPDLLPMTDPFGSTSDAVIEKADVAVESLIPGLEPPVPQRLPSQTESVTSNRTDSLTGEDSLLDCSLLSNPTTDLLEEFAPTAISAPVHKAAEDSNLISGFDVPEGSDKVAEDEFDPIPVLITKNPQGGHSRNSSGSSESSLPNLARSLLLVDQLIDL
# UniProt O60488: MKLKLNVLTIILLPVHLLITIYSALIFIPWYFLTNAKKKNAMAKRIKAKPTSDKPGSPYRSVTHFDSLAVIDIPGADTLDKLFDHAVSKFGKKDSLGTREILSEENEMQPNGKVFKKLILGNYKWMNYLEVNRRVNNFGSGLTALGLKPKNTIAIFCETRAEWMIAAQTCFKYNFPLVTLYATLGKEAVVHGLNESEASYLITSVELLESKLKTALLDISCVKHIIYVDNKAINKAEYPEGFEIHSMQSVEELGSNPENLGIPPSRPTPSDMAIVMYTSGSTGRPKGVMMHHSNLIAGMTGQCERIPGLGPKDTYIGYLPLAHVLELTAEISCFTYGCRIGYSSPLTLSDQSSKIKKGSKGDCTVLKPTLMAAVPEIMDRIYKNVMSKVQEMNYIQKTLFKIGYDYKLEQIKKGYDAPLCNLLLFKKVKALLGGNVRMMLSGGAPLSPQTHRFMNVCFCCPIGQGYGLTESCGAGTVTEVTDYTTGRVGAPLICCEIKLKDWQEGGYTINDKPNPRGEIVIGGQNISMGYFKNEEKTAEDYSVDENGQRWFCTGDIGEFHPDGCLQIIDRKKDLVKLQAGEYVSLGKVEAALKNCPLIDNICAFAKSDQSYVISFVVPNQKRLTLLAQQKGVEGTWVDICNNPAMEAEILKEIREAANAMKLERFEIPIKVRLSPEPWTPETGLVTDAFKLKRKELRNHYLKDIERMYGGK
# UniProt P78536: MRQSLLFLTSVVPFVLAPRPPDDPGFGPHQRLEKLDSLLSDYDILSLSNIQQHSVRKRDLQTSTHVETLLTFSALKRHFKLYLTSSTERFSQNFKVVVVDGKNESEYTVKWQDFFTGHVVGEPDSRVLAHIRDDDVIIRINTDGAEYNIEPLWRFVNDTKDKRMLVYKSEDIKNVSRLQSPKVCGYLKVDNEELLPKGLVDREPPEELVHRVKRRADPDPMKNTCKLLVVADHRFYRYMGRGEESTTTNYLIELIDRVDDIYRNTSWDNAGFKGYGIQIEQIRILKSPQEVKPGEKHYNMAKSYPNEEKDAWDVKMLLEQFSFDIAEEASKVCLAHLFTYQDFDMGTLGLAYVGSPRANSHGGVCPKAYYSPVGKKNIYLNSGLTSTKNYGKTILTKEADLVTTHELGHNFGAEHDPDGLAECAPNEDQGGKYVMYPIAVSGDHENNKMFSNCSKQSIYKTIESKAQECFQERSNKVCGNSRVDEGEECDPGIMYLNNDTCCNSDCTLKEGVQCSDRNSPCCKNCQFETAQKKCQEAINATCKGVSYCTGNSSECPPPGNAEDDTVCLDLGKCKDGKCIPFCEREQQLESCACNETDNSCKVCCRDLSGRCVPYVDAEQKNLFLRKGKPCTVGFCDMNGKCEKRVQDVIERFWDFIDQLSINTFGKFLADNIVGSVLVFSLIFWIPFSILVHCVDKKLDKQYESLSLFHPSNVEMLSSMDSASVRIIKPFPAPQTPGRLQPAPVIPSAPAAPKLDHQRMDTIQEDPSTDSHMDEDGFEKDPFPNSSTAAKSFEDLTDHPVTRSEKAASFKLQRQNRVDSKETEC
# Some of the results follow.
# Tests used:
# Assay in all cases: log2 fold change, soluble protein after heating vs DMSO (PISA); higher = thermal stabilisation; K562 cells, 10 uM, 30 min; active = over 0.2 and 3.5 SD of the protein, either way, in both replicates (recomputed)
# bafetinib = compound: Cc1ccc(NC(=O)c2ccc(CN3CC[C@H](N(C)C)C3)c(C(F)(F)F)c2)cc1Nc1nccc(-c2cncnc2)n1 [bafetinib]
# Method in brief: (§1)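 Quantification of soluble protein used TMTpro 16plex LC-MS/MS, with channel sums equalised. Samples were the supernatant after 21,000xg for 90 min of pooled aliquots from K562 cells (2×10^6 cells/mL) treated with 10 μM compound for 30 min, heated for 3 min over 48°C-58°C, and extracted in PBS with 0.5% NP-40 at 4°C. Values, from duplicates, describe thermal stability against control samples on a log2 fold-change scale.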
# [1] = compound: Cc1cccc(CC(=O)N2CCc3c2ccc(-c2cn(C)c4ncnc(N)c24)c3F)n1
# Method in brief: as §1
# nilotinib = compound: Cc1cn(-c2cc(NC(=O)c3ccc(C)c(Nc4nccc(-c5cccnc5)n4)c3)cc(C(F)(F)F)c2)cn1 [nilotinib]
# Method in brief: as §1
# [2] = compound: Cc1nc(Nc2n[nH]c3c2CN(C(=O)N[C@H](CN(C)C)c2ccccc2)C3(C)C)c2sccc2n1
# Method in brief: as §1
# dasatinib = compound: Cc1nc(Nc2ncc(C(=O)Nc3c(C)cccc3Cl)s2)cc(N2CCN(CCO)CC2)n1 [dasatinib]
# Method in brief: as §1
# [3] = compound: Cc1ncc(-c2ccnc(Nc3ccc(S(C)(=O)=O)cc3)n2)n1C(C)C
# Method in brief: as §1
# [4] = compound: Cn1cc(-c2ccc3c(c2)CCN3C(=O)Cc2cccc(C(F)(F)F)c2)c2c(N)ncnc21
# Method in brief: as §1
# [5] = compound: Cn1cc(-c2ccc3nnc(C(F)(F)c4ccc5ncccc5c4)n3n2)cn1
# Method in brief: as §1
# tipifarnib = compound: Cn1cncc1[C@@](N)(c1ccc(Cl)cc1)c1ccc2c(c1)c(-c1cccc(Cl)c1)cc(=O)n2C [tipifarnib]
# Method in brief: as §1
# mubritinib = compound: FC(F)(F)c1ccc(/C=C/c2nc(COc3ccc(CCCCn4ccnn4)cc3)co2)cc1 [mubritinib]
# Method in brief: as §1
# [6] = compound: NC(=O)Nc1cc(-c2cccc(F)c2)sc1C(=O)N[C@H]1CCCNC1
# Method in brief: as §1
# [7] = compound: NC(=O)c1cnc(N[C@@H]2CCCC[C@@H]2N)nc1Nc1cccc(-n2nccn2)c1
# Method in brief: as §1
# [8] = compound: NC1(c2ccc(-c3nc4ccn5c(=O)[nH]nc5c4cc3-c3ccccc3)cc2)CCC1
# Method in brief: as §1
# [9] = compound: NCC(=O)Nc1ccc(-n2nc(C(F)(F)F)cc2-c2ccc3c(ccc4ccccc43)c2)cc1
# Method in brief: as §1
# entinostat = compound: Nc1ccccc1NC(=O)c1ccc(CNC(=O)OCc2cccnc2)cc1 [entinostat]
# Method in brief: as §1
# vorinostat = compound: O=C(CCCCCCC(=O)Nc1ccccc1)NO [vorinostat]
# Method in brief: as §1
# citarinostat = compound: O=C(CCCCCCNC(=O)c1cnc(N(c2ccccc2)c2ccccc2Cl)nc1)NO [citarinostat]
# Method in brief: as §1
# silmitasertib = compound: O=C(O)c1ccc2c(c1)nc(Nc1cccc(Cl)c1)c1ccncc12 [silmitasertib]
# Method in brief: as §1
# [10] = compound: O=C1NC(=O)C(c2cnc3ccccn23)=C1c1cn2c3c(cc(F)cc13)CN(C(=O)N1CCCCC1)CC2
# Method in brief: as §1
# [11] = compound: c1cc(OCCN2CCCCC2)cc(-c2n[nH]c3ccc(-c4nnc[nH]4)cc23)c1
# Method in brief: as §1
Target,log2 fold change (bafetinib),log2 fold change [1],log2 fold change (nilotinib),log2 fold change [2],log2 fold change (dasatinib),log2 fold change [3],log2 fold change [4],log2 fold change [5],log2 fold change (tipifarnib),log2 fold change (mubritinib),log2 fold change [6],log2 fold change [7],log2 fold change [8],log2 fold change [9],log2 fold change (entinostat),log2 fold change (vorinostat),log2 fold change (citarinostat),log2 fold change (silmitasertib),log2 fold change [10],log2 fold change [11]
ABHD16A (UniProt O95870),inactive: 0.132,inactive: -0.056,inactive: 0.177,inactive: 0.055,inactive: 0.029,inactive: -0.058,inactive: 0.087,inactive: -0.075,inactive: -0.01,inactive: 0.071,inactive: -0.026,inactive: 0.026,inactive: 0.113,inactive: 0.049,inactive: -0.02,inactive: 0.055,inactive: 0.026,inactive: -0.022,inactive: 0.005,inactive: 0.008
ACOT9 isoform 4 (UniProt Q9Y305),inactive: 0.169,inactive: 0.111,inactive: 0.071,inactive: 0.044,inactive: 0.036,inactive: -0.034,inactive: 0.04,inactive: -0.049,inactive: 0.009,inactive: 0.081,inactive: 0.001,inactive: -0.016,inactive: 0.14,inactive: 0.065,inactive: -0.021,inactive: -0.018,inactive: -0.034,inactive: -0.093,inactive: 0.124,inactive: -0.048
ABCB8 (UniProt Q9NUT2),inactive: 0.037,inactive: 0,inactive: -0.017,inactive: -0.007,inactive: -0.06,inactive: -0.004,inactive: 0.014,inactive: 0.05,inactive: -0.001,inactive: 0.035,inactive: -0.013,inactive: -0.059,inactive: -0.085,inactive: -0.083,inactive: 0.015,inactive: -0.021,inactive: -0.002,inactive: -0.013,inactive: -0.071,inactive: -0.048
ABITRAM (UniProt Q9NX38),inactive: 0.016,inactive: 0.116,inactive: -0.327,inactive: -0.146,inactive: -0.316,active: -0.442,inactive: -0.004,inactive: 0.026,inactive: -0.031,inactive: 0.046,inactive: -0.018,inactive: -0.12,inactive: -0.194,inactive: 0.008,inactive: 0.008,inactive: -0.089,inactive: 0.046,inactive: 0.094,inactive: -0.015,inactive: -0.006
ABCB6 (UniProt Q9NP58),inactive: -0.035,inactive: 0.014,inactive: 0.022,inactive: 0.032,inactive: -0.001,inactive: 0.024,inactive: 0,inactive: -0.025,inactive: 0.005,inactive: 0.001,inactive: 0.005,inactive: -0.111,active: -0.456,inactive: -0.015,inactive: -0.011,inactive: 0.044,inactive: 0.063,inactive: 0.018,inactive: -0.047,inactive: -0.021
AAR2 (UniProt Q9Y312),inactive: -0.019,inactive: -0.062,inactive: 0.058,inactive: 0.009,inactive: -0.006,inactive: 0.019,inactive: -0.079,inactive: -0.034,inactive: 0.004,inactive: -0.036,inactive: -0.016,inactive: -0.015,inactive: 0.066,inactive: -0.034,inactive: 0.026,inactive: 0.19,inactive: -0.009,inactive: 0.035,inactive: 0.04,inactive: -0.067
ACTL8 (UniProt Q9H568),inactive: -0.078,inactive: -0.03,inactive: -0.054,inactive: 0.003,inactive: 0.021,inactive: 0.068,inactive: -0.018,inactive: 0.015,inactive: 0.089,inactive: 0,inactive: -0.024,inactive: -0.049,inactive: 0.025,inactive: 0.145,inactive: 0.012,inactive: 0.077,inactive: -0.041,inactive: 0.011,inactive: 0.152,inactive: -0.062
ACSS2 isoform 2 (UniProt Q9NR19),inactive: -0.05,inactive: -0.025,inactive: -0.038,inactive: -0.014,inactive: -0.077,inactive: 0.004,inactive: 0.035,inactive: -0.018,inactive: -0.077,inactive: -0.07,inactive: -0.008,inactive: -0.072,inactive: -0.146,inactive: -0.048,inactive: 0.005,inactive: 0.028,inactive: 0.032,inactive: -0.009,inactive: -0.059,inactive: 0.002
AARS (UniProt P49588),inactive: -0.035,inactive: 0.065,inactive: -0.047,inactive: 0.008,inactive: -0.006,inactive: -0.002,inactive: 0.038,inactive: 0.022,inactive: -0.03,inactive: 0.011,inactive: 0.026,inactive: -0.012,inactive: -0.081,inactive: -0.026,inactive: 0.018,inactive: 0.034,inactive: 0.01,inactive: -0.059,inactive: -0.041,inactive: -0.023
ACTR3 (UniProt P61158),inactive: -0.026,inactive: 0.046,inactive: 0.078,inactive: 0.019,inactive: 0.071,inactive: 0.024,inactive: -0.009,inactive: -0.02,inactive: -0.017,inactive: 0.005,inactive: 0.008,inactive: 0.014,inactive: -0.041,inactive: -0.001,inactive: -0.045,inactive: -0.006,inactive: 0.009,inactive: 0.018,inactive: -0.023,inactive: -0.025
ACTN1 (UniProt P12814),inactive: -0.017,inactive: -0.016,inactive: 0.021,inactive: 0.008,inactive: -0.004,inactive: 0.002,inactive: 0.027,inactive: -0.009,inactive: 0.006,inactive: 0.022,inactive: -0.012,inactive: -0.014,inactive: -0.001,inactive: 0.042,inactive: -0.018,inactive: -0.028,inactive: 0.029,inactive: 0.009,inactive: -0.018,inactive: -0.04
ABCB10 (UniProt Q9NRK6),inactive: -0.066,inactive: 0.008,inactive: -0.019,inactive: 0,inactive: 0.01,inactive: -0.004,inactive: 0.01,inactive: 0.025,inactive: 0.036,inactive: 0.025,inactive: 0.003,inactive: -0.004,inactive: -0.062,inactive: 0.016,inactive: -0.015,inactive: 0,inactive: 0.036,inactive: -0.01,inactive: -0.012,inactive: -0.017
ADAT2 (UniProt Q7Z6V5),inactive: -0.019,inactive: -0.023,inactive: -0.014,inactive: -0.015,inactive: -0.046,inactive: 0.002,inactive: 0.025,inactive: 0.015,inactive: -0.013,inactive: 0,inactive: 0.016,inactive: 0.108,inactive: -0.05,inactive: 0.041,inactive: -0.024,inactive: -0.015,inactive: 0.048,inactive: 0.057,inactive: -0.029,inactive: -0.018
AAK1 (UniProt Q2M2I8),inactive: -0.016,inactive: -0.048,inactive: 0.027,inactive: 0.158,inactive: -0.203,inactive: 0.219,inactive: -0.011,inactive: -0.086,inactive: -0.057,inactive: -0.066,inactive: 0.28,inactive: 0.055,inactive: -0.027,inactive: 0.045,inactive: -0.015,inactive: 0.074,inactive: -0.015,inactive: 0.153,inactive: 0.238,inactive: 0.052
ACSL4 (UniProt O60488),inactive: -0.021,inactive: -0.014,inactive: -0.027,inactive: -0.063,inactive: -0.222,inactive: 0.087,inactive: 0.05,inactive: 0.115,inactive: -0.134,inactive: -0.078,inactive: -0.087,inactive: -0.097,inactive: -0.057,inactive: -0.023,inactive: 0.081,inactive: 0.029,inactive: 0.044,inactive: 0.149,inactive: 0.003,inactive: 0.017
ADAM17 (UniProt P78536),inactive: -0.045,inactive: -0.023,inactive: 0.001,inactive: 0.019,inactive: 0.01,inactive: -0.045,inactive: -0.014,inactive: -0.014,inactive: 0.096,inactive: -0.049,inactive: 0.024,inactive: -0.015,inactive: -0.066,inactive: 0.135,inactive: -0.006,inactive: -0.02,inactive: -0.039,inactive: 0.037,inactive: -0.023,inactive: -0.053

# Single values from the list.
# ACSL4 (UniProt O60488) | log2 fold change (dasatinib): inactive: -0.222
# AAK1 (UniProt Q2M2I8) | log2 fold change (dasatinib): inactive: -0.203
